The other results are listed elsewhere or left out.
How the values were obtained:
Assay in all cases: glycan array binding signal (z-score within array); higher = stronger binding
Settings in all cases: glycan notation: IUPAC condensed, linker removed
[1] = biological target: Gal(b1-4)GlcNAc(b1-2)[Gal(b1-4)GlcNAc(b1-6)]Man(a1-6)[GlcNAc(b1-4)][Gal(b1-4)GlcNAc(b1-2)Man(a1-3)]Man(b1-4)GlcNAc(b1-4)GlcNAc
In short: (§1)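 The binding signal is a Z-score computed within each array and averaged over linkers. Arrays of the same protein sequence at different concentrations or buffers were also averaged together. Data originate from 3228 arrays in the Consortium for Functional Glycomics database, kept only where the protein sequence was available.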

[2] = biological target: Gal(b1-4)GlcNAc(b1-2)[Gal(b1-4)GlcNAc(b1-6)]Man(a1-6)[GlcNAc(b1-4)][Gal(b1-4)GlcNAc(b1-2)[Gal(b1-4)GlcNAc(b1-4)]Man(a1-3)]Man(b1-4)GlcNAc(b1-4)[Fuc(a1-6)]GlcNAc
In short: as §1

[3] = biological target: Gal(b1-4)GlcNAc(b1-3)Gal(b1-3)GalNAc
In short: as §1

[4] = biological target: Gal(b1-4)GlcNAc(b1-3)Gal(b1-3)GlcNAc
In short: as §1

[5] = biological target: Gal(b1-4)GlcNAc(b1-3)Gal(b1-4)Glc
In short: as §1

[6] = biological target: Gal(b1-4)GlcNAc(b1-3)Gal(b1-4)GlcNAc
In short: as §1

[7] = biological target: Gal(b1-4)GlcNAc(b1-3)Gal(b1-4)GlcNAc(b1-2)Man(a1-3)[Gal(b1-4)GlcNAc(b1-3)Gal(b1-4)GlcNAc(b1-2)Man(a1-6)]Man(b1-4)GlcNAc(b1-4)GlcNAc
In short: as §1

[8] = biological target: Gal(b1-4)GlcNAc(b1-3)Gal(b1-4)GlcNAc(b1-2)Man(a1-3)[Gal(b1-4)GlcNAc(b1-3)Gal(b1-4)GlcNAc(b1-2)Man(a1-6)]Man(b1-4)GlcNAc(b1-4)[Fuc(a1-6)]GlcNAc
In short: as §1

[9] = biological target: Gal(b1-4)GlcNAc(b1-3)Gal(b1-4)GlcNAc(b1-2)[Gal(b1-4)GlcNAc(b1-3)Gal(b1-4)GlcNAc(b1-6)]Man(a1-6)[Gal(b1-4)GlcNAc(b1-3)Gal(b1-4)GlcNAc(b1-2)Man(a1-3)]Man(b1-4)GlcNAc(b1-4)GlcNAc
In short: as §1

[10] = biological target: Gal(b1-4)GlcNAc(b1-3)Gal(b1-4)GlcNAc(b1-2)[Gal(b1-4)GlcNAc(b1-3)Gal(b1-4)GlcNAc(b1-6)]Man(a1-6)[Gal(b1-4)GlcNAc(b1-3)Gal(b1-4)GlcNAc(b1-2)Man(a1-3)]Man(b1-4)GlcNAc(b1-4)[Fuc(a1-6)]GlcNAc
In short: as §1

[11] = biological target: Gal(b1-4)GlcNAc(b1-3)Gal(b1-4)GlcNAc(b1-3)Gal(b1-4)GlcNAc
In short: as §1

[12] = biological target: Gal(b1-4)GlcNAc(b1-3)Gal(b1-4)GlcNAc(b1-3)Gal(b1-4)GlcNAc(b1-2)Man(a1-3)[Gal(b1-4)GlcNAc(b1-3)Gal(b1-4)GlcNAc(b1-3)Gal(b1-4)GlcNAc(b1-2)Man(a1-6)]Man(b1-4)GlcNAc(b1-4)GlcNAc
In short: as §1

[13] = biological target: Gal(b1-4)GlcNAc(b1-3)Gal(b1-4)GlcNAc(b1-3)Gal(b1-4)GlcNAc(b1-2)Man(a1-3)[Gal(b1-4)GlcNAc(b1-3)Gal(b1-4)GlcNAc(b1-3)Gal(b1-4)GlcNAc(b1-2)Man(a1-6)]Man(b1-4)GlcNAc(b1-4)[Fuc(a1-6)]GlcNAc
In short: as §1

[14] = biological target: Gal(b1-4)GlcNAc(b1-3)Gal(b1-4)GlcNAc(b1-3)Gal(b1-4)GlcNAc(b1-2)[Gal(b1-4)GlcNAc(b1-3)Gal(b1-4)GlcNAc(b1-3)Gal(b1-4)GlcNAc(b1-6)]Man(a1-6)[Gal(b1-4)GlcNAc(b1-3)Gal(b1-4)GlcNAc(b1-3)Gal(b1-4)GlcNAc(b1-2)Man(a1-3)]Man(b1-4)GlcNAc(b1-4)[Fuc(a1-6)]GlcNAc
In short: as §1

[15] = biological target: Gal(b1-4)GlcNAc(b1-3)Gal(b1-4)GlcNAc(b1-3)Gal(b1-4)GlcNAc(b1-3)Gal(b1-4)GlcNAc(b1-2)Man(a1-3)[Gal(b1-4)GlcNAc(b1-3)Gal(b1-4)GlcNAc(b1-3)Gal(b1-4)GlcNAc(b1-3)Gal(b1-4)GlcNAc(b1-2)Man(a1-6)]Man(b1-4)GlcNAc(b1-4)GlcNAc
In short: as §1

[16] = biological target: Gal(b1-4)GlcNAc(b1-3)Gal(b1-4)GlcNAc(b1-3)Gal(b1-4)GlcNAc(b1-3)Gal(b1-4)GlcNAc(b1-2)Man(a1-3)[Gal(b1-4)GlcNAc(b1-3)Gal(b1-4)GlcNAc(b1-3)Gal(b1-4)GlcNAc(b1-3)Gal(b1-4)GlcNAc(b1-2)Man(a1-6)]Man(b1-4)GlcNAc(b1-4)[Fuc(a1-6)]GlcNAc
In short: as §1

[17] = biological target: Gal(b1-4)GlcNAc(b1-3)Gal(b1-4)GlcNAc(b1-3)Gal(b1-4)GlcNAc(b1-3)Gal(b1-4)GlcNAc(b1-2)[Gal(b1-4)GlcNAc(b1-3)Gal(b1-4)GlcNAc(b1-3)Gal(b1-4)GlcNAc(b1-3)Gal(b1-4)GlcNAc(b1-6)]Man(a1-6)[Gal(b1-4)GlcNAc(b1-3)Gal(b1-4)GlcNAc(b1-3)Gal(b1-4)GlcNAc(b1-3)Gal(b1-4)GlcNAc(b1-2)Man(a1-3)]Man(b1-4)GlcNAc(b1-4)[Fuc(a1-6)]GlcNAc
In short: as §1

[18] = biological target: Gal(b1-4)GlcNAc(b1-3)Gal(b1-4)GlcNAc(b1-3)Gal(b1-4)GlcNAc(b1-3)Gal(b1-4)GlcNAc(b1-3)Gal(b1-4)GlcNAc(b1-2)Man(a1-3)[Gal(b1-4)GlcNAc(b1-3)Gal(b1-4)GlcNAc(b1-3)Gal(b1-4)GlcNAc(b1-3)Gal(b1-4)GlcNAc(b1-3)Gal(b1-4)GlcNAc(b1-2)Man(a1-6)]Man(b1-4)GlcNAc(b1-4)GlcNAc
In short: as §1

[19] = biological target: Gal(b1-4)GlcNAc(b1-3)Gal(b1-4)GlcNAc(b1-3)Gal(b1-4)GlcNAc(b1-3)Gal(b1-4)GlcNAc(b1-3)Gal(b1-4)GlcNAc(b1-2)Man(a1-3)[Gal(b1-4)GlcNAc(b1-3)Gal(b1-4)GlcNAc(b1-3)Gal(b1-4)GlcNAc(b1-3)Gal(b1-4)GlcNAc(b1-3)Gal(b1-4)GlcNAc(b1-2)Man(a1-6)]Man(b1-4)GlcNAc(b1-4)[Fuc(a1-6)]GlcNAc
In short: as §1

[20] = biological target: Gal(b1-4)GlcNAc(b1-3)Gal(b1-4)GlcNAc(b1-3)Gal(b1-4)GlcNAc(b1-3)Gal(b1-4)GlcNAc(b1-3)Gal(b1-4)GlcNAc(b1-2)[Gal(b1-4)GlcNAc(b1-3)Gal(b1-4)GlcNAc(b1-3)Gal(b1-4)GlcNAc(b1-3)Gal(b1-4)GlcNAc(b1-3)Gal(b1-4)GlcNAc(b1-6)]Man(a1-6)[Gal(b1-4)GlcNAc(b1-3)Gal(b1-4)GlcNAc(b1-3)Gal(b1-4)GlcNAc(b1-3)Gal(b1-4)GlcNAc(b1-3)Gal(b1-4)GlcNAc(b1-2)Man(a1-3)]Man(b1-4)GlcNAc(b1-4)[Fuc(a1-6)]GlcNAc
In short: as §1

[21] = biological target: Gal(b1-4)GlcNAc(b1-3)Gal(b1-4)GlcNAc(b1-3)Gal(b1-4)GlcNAc(b1-3)Gal(b1-4)GlcNAc(b1-3)Gal(b1-4)GlcNAc(b1-3)Gal(b1-4)GlcNAc(b1-2)Man(a1-3)[Gal(b1-4)GlcNAc(b1-3)Gal(b1-4)GlcNAc(b1-3)Gal(b1-4)GlcNAc(b1-3)Gal(b1-4)GlcNAc(b1-3)Gal(b1-4)GlcNAc(b1-3)Gal(b1-4)GlcNAc(b1-2)Man(a1-6)]Man(b1-4)GlcNAc(b1-4)GlcNAc
In short: as §1

[22] = biological target: Gal(b1-4)GlcNAc(b1-3)Gal(b1-4)GlcNAc(b1-3)GalNAc
In short: as §1

[23] = biological target: Gal(b1-4)GlcNAc(b1-3)Gal(b1-4)GlcNAc(b1-3)[Gal(b1-4)GlcNAc(b1-3)Gal(b1-4)GlcNAc(b1-6)]GalNAc
In short: as §1

B1: Mermaid1 (Stilbonema majum) (protein)
chain: MGSSHHHHHHSSGLVPRGSHMAASGWLRSPQGTVVKLYRRSLSWSKADEFCKDVDGRLVVDRTADMHLFLIKNVLKEKKSRVWVGLRRTAPHSRTWIWSDGTRQNEDDLDANLWLRDEPNDAAGEEECALFMYSPWEKAWGLNDYLCRGGCRSYQFICEKWIR
glycan array binding signal (z-score) [1]: 0.087 | glycan array binding signal (z-score) [2]: -0.706 | glycan array binding signal (z-score) [3]: 0.406 | glycan array binding signal (z-score) [4]: -0.151 | glycan array binding signal (z-score) [5]: -0.388 | glycan array binding signal (z-score) [6]: -0.212 | glycan array binding signal (z-score) [7]: 0.312 | glycan array binding signal (z-score) [8]: 0.945 | glycan array binding signal (z-score) [9]: 4.04 | glycan array binding signal (z-score) [10]: 0.016 | glycan array binding signal (z-score) [11]: -0.531 | glycan array binding signal (z-score) [12]: -0.367 | glycan array binding signal (z-score) [13]: 1.37 | glycan array binding signal (z-score) [14]: 0.548 | glycan array binding signal (z-score) [15]: 0.856 | glycan array binding signal (z-score) [16]: 0.477 | glycan array binding signal (z-score) [17]: -0.492 | glycan array binding signal (z-score) [18]: 0.715 | glycan array binding signal (z-score) [19]: -0.28 | glycan array binding signal (z-score) [20]: 2.12 | glycan array binding signal (z-score) [21]: -0.041 | glycan array binding signal (z-score) [22]: 1.12 | glycan array binding signal (z-score) [23]: -0.17
